Data: publication PMC4361615
Results are given in words; binding and its absence hold for the method and conditions named. In cells and extracts the contact can be indirect. Some entries that bind do so weakly or less than the wild type.

Amino acid sequences for entries named in this document (tags omitted).
UniProt O88522: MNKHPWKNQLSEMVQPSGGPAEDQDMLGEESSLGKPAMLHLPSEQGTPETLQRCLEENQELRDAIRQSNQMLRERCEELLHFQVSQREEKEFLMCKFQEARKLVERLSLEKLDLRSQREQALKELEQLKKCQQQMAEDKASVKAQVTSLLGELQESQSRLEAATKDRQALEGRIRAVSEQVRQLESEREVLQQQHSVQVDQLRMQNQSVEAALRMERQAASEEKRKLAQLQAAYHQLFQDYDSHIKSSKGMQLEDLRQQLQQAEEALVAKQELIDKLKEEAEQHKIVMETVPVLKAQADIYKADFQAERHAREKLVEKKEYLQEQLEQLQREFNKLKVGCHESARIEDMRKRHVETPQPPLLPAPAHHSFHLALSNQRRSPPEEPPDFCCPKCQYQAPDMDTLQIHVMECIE
UniProt Q96CV9: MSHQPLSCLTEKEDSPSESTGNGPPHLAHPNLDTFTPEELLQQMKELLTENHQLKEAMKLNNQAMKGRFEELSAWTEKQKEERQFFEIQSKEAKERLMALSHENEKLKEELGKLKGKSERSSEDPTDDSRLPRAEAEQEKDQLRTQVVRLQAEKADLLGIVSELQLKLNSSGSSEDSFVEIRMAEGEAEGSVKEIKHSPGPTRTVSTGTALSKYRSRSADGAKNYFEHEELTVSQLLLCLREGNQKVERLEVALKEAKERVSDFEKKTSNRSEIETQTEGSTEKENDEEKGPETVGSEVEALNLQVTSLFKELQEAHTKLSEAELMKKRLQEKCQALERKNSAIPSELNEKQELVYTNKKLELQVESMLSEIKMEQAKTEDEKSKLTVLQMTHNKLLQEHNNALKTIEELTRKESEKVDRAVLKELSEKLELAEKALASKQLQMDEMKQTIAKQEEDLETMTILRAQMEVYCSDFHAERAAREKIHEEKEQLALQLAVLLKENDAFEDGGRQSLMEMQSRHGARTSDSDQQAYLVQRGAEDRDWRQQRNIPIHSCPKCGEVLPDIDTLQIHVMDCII
UniProt P61088: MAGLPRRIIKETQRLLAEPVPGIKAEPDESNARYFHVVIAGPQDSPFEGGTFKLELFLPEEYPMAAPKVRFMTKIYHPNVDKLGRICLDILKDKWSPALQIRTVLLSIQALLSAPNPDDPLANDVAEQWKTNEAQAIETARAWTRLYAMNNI

Assays:
[1] = biological target: T1, Cell adhesion molecule 1 (CADM1), endogenous in human T-cell lines (human (endogenous in Jurkat, C8166, MT-2, MT-4)) (UniProt Q9BY67); assay: co-IP; lysates of C8166, MT-2 and MT-4 cells immunoprecipitated with anti-CADM1 (control anti-IgG), immunoblot anti-Tax
T1 sequence: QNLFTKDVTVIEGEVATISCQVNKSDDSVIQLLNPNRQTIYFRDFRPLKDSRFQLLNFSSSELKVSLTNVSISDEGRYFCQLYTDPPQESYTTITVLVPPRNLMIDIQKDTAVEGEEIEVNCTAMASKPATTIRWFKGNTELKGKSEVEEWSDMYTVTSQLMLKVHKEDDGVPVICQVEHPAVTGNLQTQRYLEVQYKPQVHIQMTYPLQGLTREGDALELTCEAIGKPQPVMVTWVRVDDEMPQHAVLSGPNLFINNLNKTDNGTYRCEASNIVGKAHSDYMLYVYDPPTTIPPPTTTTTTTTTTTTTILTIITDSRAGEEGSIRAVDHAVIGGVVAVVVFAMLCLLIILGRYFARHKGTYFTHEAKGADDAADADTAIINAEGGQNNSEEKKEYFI

[2] = biological target: T1, Cell adhesion molecule 1 (CADM1), endogenous in human T-cell lines (human (endogenous in Jurkat, C8166, MT-2, MT-4)); assay: co-IP; lipid raft fractions (OptiPrep density gradient, 1% Triton X-100 lysate; fractions 4, 5 and 6) of MT-2 and MT-4 cells expressing control shRNA, and of media-treated MT-2 cells (against 10 mM MβCD, 45 min, under which the interactions were 'impaired'); immunoprecipitated with anti-CADM1, immunoblot anti-TAX1BP1, anti-Tax, anti-NEMO, anti-Ubc13, anti-NRP
[3] = biological target: Purified recombinant Tax (from the pTaxH6 expression plasmid) (HTLV-1) (UniProt P03409); assay: co-IP; cell-free system: recombinant Tax (250 ng) incubated with cytosolic extract (S100, 10 mg/ml) of Jurkat, JM4.5.2 (NEMO-deficient), Cadm1+/+ or Cadm1-/- MEFs with ATP, 30°C, 1 hour; immunoprecipitated with anti-Tax, immunoblot anti-NEMO, anti-IKKα, anti-IKKβ; only the target purified
[4] = biological target: HTLV-1 Tax, expressed by lentiviral transduction in Jurkat T-cells (HTLV-1) (UniProt P03409); assay: co-IP

Molecule	binding [2]	binding [3]	further results
HTLV-1 Tax in HTLV-1-transformed T-cell lines C8166, MT-2 and MT-4 (from UniProt P03409 1-353)	binds	–	binding [1]: binds
NEMO (IKKγ), endogenous in human T-cell lines (from UniProt Q9Y6K9 1-419)	binds	binds	–
NEMO, endogenous in MEFs (from UniProt O88522 1-412)	–	binds	–
NEMO-Related Protein (NRP), endogenous in HTLV-1-transformed human T-cell lines (from UniProt Q96CV9 1-577)	binds	–	–
Ubiquitin-conjugating enzyme Ubc13, endogenous in HTLV-1-transformed human T-cell lines (from UniProt P61088 1-152)	binds	–	–
Cell adhesion molecule 1 (CADM1), endogenous in human T-cell lines (protein, UniProt Q9BY67 45-442) QNLFTKDVTVIEGEVATISCQVNKSDDSVIQLLNPNRQTIYFRDFRPLKDSRFQLLNFSSSELKVSLTNVSISDEGRYFCQLYTDPPQESYTTITVLVPPRNLMIDIQKDTAVEGEEIEVNCTAMASKPATTIRWFKGNTELKGKSEVEEWSDMYTVTSQLMLKVHKEDDGVPVICQVEHPAVTGNLQTQRYLEVQYKPQVHIQMTYPLQGLTREGDALELTCEAIGKPQPVMVTWVRVDDEMPQHAVLSGPNLFINNLNKTDNGTYRCEASNIVGKAHSDYMLYVYDPPTTIPPPTTTTTTTTTTTTTILTIITDSRAGEEGSIRAVDHAVIGGVVAVVVFAMLCLLIILGRYFARHKGTYFTHEAKGADDAADADTAIINAEGGQNNSEEKKEYFI	–	–	binding [4]: binds
